{
  "source": "PubChem BioAssay AID662",
  "about": "(National Center for Advancing Translational Sciences (NCATS), 2007)",
  "note": "Where “and” joins values, the source holds several entries; their conditions need not be identical. Equal entries are not always repeated. This is one part of the list. These are further read-outs of the screen, such as a control signal, another cell line or another target. No call is given for them. Compounds called inactive in the main read-out are mostly missing here. Potencies come from curve fits of mixed quality, noted in brackets.",
  "data": [
    {"assay": "Cell signaling CRE-BLA (Fsk stim)", "settings": "CHO CRE-bla reporter (cAMP response element driving beta-lactamase), forskolin EC10, beta-lactamase ratio; measured here: 460 nm blue channel", "in_short": "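AC50 values, positive or negative, reflect shifts in EC10 NKH 477-induced CRE-bla reporter activity in CHO cells. Incubation lasted 3 h at 37 °C before CCF4 substrate (2 h, room temperature) and ratiometric 460/530 nm reading.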", "values": [
      {"smiles": "CCc1nc2ccccc2n1CCC(C)C", "AC50": "12.6 µM [rising, single point]"},
      {"smiles": "COc1ccccc1-c1nc(C#N)c(N2CCN(Cc3ccccc3)CC2)o1", "AC50": "3.16 µM [rising, full curve, poor fit]"},
      {"smiles": "CN(CCc1ccccn1)C(=O)c1nn2c(C(F)(F)F)cc(-c3ccco3)nc2c1Cl", "AC50": "1.58 µM [rising, partial curve]"},
      {"smiles": "COc1ccc(NC(=O)C2OCCc3ccccc32)c(OC)c1", "note": "(stereo not drawn)", "AC50": "0.00398 µM [falling, full curve, poor fit]"},
      {"smiles": "Cn1c(=O)c(-c2ccc(F)cc2)nc2cnc(OCc3ccccc3)nc21", "AC50": "15.8 µM [rising, partial curve]"},
      {"smiles": "O=C1CC(c2ccc3c(c2)OCO3)c2cc3c(cc2N1)OCO3", "note": "(stereo not drawn)", "AC50": "0.00316 µM [falling, full curve, poor fit]"},
      {"smiles": "CCNc1ncc2nc(-c3ccccc3)c(=O)n(C3CC3)c2n1", "AC50": "12.6 µM [rising, partial curve]"},
      {"smiles": "COc1ncnc2c1N[C@@](C)(O)c1c(F)c(F)c(F)c(F)c1S2", "AC50": "25.1 µM [rising, single point]"},
      {"smiles": "Cc1ccc(S(=O)(=O)N2CCCC2C(=O)Nc2nc3ccccc3s2)cc1", "note": "(stereo not drawn)", "AC50": "10 µM [falling, single point]"},
      {"smiles": "COc1ccc(CCNC(=O)C2CCN(S(=O)(=O)N3CCOCC3)CC2)cc1OC", "AC50": "3.16 µM [falling, partial curve]"},
      {"smiles": "COc1ccc(-c2nnc(SCCOc3cccc(C)c3)n2N)cc1", "AC50": "5.01 µM [falling, single point]"},
      {"smiles": "COc1ccc(-c2[nH]nc3oc(=O)cc(C)c23)cc1", "AC50": "12.6 µM [rising, partial curve]"},
      {"smiles": "CCOC(=O)c1c(NC(C)=O)sc2c(O)c(CN3CCN(CC)CC3)ccc12", "AC50": "12.6 µM [rising, single point]"},
      {"smiles": "O=C1CSC(c2ccccc2F)N1c1cc(Cl)ccc1O", "note": "(stereo not drawn)", "AC50": "12.6 µM [falling, single point]"},
      {"smiles": "Cc1noc(C)c1C(=O)OCC(=O)/C=C1\\N(C)c2ccccc2C1(C)C", "AC50": "1.26 µM [rising, partial curve]"},
      {"smiles": "CCOc1ccc(C2C(C#N)=C(N)N3C(=C2C#N)Sc2ccccc23)cc1", "note": "(stereo not drawn)", "AC50": "12.6 µM [rising, partial curve]"},
      {"smiles": "C=CCSc1nc2c(c(=O)[nH]c(=O)n2C)n1Cc1ccc(C)cc1", "AC50": "2.51 µM [rising, full curve]"},
      {"smiles": "C=CCNS(=O)(=O)c1ccc(OC)c(C)c1", "AC50": "0.00316 µM [falling, full curve, poor fit]"},
      {"smiles": "CCc1nc(SCC(=O)N2CCCC2)c2ccccc2n1", "AC50": "3.16 µM [rising, single point]"},
      {"smiles": "O=C1C2C(C(=O)N1Cc1ccco1)C1C=CC2C12CC2", "note": "(stereo not drawn)", "AC50": "5.01 µM [falling, single point]"},
      {"smiles": "CCN(CC)c1cccc(OCC(=O)N(C)CCC#N)c1", "AC50": "10 µM [rising, partial curve]"},
      {"smiles": "Cc1cc(C)cc(-n2nnc(C(=O)NCc3ccco3)c2N)c1", "AC50": "3.16 µM [rising, single point]"},
      {"smiles": "CNc1nc(C)nc(-c2ccccc2O)n1", "AC50": "12.6 µM [rising, partial curve]"},
      {"smiles": "Cc1c(NC(=O)c2cc(-c3ccccc3)on2)c(=O)n(-c2ccccc2)n1C", "AC50": "0.0251 µM [falling, full curve, poor fit]"},
      {"smiles": "COc1ccc(CNc2ccnc(-c3ccc(N(C)C)cc3)n2)c(OC)c1", "AC50": "12.6 µM [rising, single point]"},
      {"smiles": "O=C(NC(Cc1ccccc1)c1nc2ccccc2[nH]1)C1CC(=O)N(c2ccc3c(c2)OCCO3)C1", "note": "(stereo not drawn)", "AC50": "0.1 µM [falling, single point]"},
      {"smiles": "COC(=O)Cn1c(=NC(=O)CSC(C)=O)sc2ccccc21", "AC50": "12.6 µM [rising, single point]"},
      {"smiles": "Cc1noc(C)c1CSc1nnnn1-c1ccc(Cl)cc1", "AC50": "15.8 µM [rising, single point]"},
      {"smiles": "CC(C)CC(C(=O)NCc1ccccn1)N1C(=O)c2ccccc2C1=O", "note": "(stereo not drawn)", "AC50": "1 µM [falling, single point]"},
      {"smiles": "CC(C)CN(CC(C)C)S(=O)(=O)N1CCC(C(=O)NCc2ccccn2)CC1", "AC50": "0.1 µM [rising, partial curve]"},
      {"smiles": "O=C(Nc1ccc(C(F)(F)F)cc1)C1CCCN1S(=O)(=O)c1cccc2cccnc12", "note": "(stereo not drawn)", "AC50": "0.00794 µM [falling, full curve, poor fit]"},
      {"smiles": "CC(=O)N(Cc1cc(=O)[nH]c2ccccc12)c1cccc(C)c1", "AC50": "0.00501 µM [rising, full curve]"},
      {"smiles": "CCCCCNC(=O)c1cc(S(=O)(=O)N2CCCCC2)ccc1F", "AC50": "10 µM [rising, partial curve, poor fit]"},
      {"smiles": "CCc1nc(N)c(C#N)c(-c2ccc(O)c(OC)c2)c1C", "AC50": "12.6 µM [rising, partial curve]"},
      {"smiles": "COc1ccccc1NC(=O)COc1ccc(CO)cc1Cl", "AC50": "10 µM [rising, partial curve]"},
      {"smiles": "COc1cc([C@H]2c3cc4c(cc3[C@@H](O)[C@@H]3COC(=O)[C@H]23)OCO4)cc(OC)c1OC", "AC50": "63.1 nM [rising, full curve] and 10 nM [rising, full curve]"},
      {"smiles": "COCC(C)n1c(SCc2ccc(C(=O)OC)o2)nc2ccccc2c1=O", "note": "(stereo not drawn)", "AC50": "7.94 µM [rising, partial curve]"},
      {"smiles": "O=C(OCC(=O)N1CCN(C(=O)COC(=O)c2ccncc2)CC1)c1ccncc1", "AC50": "0.0316 µM [falling, full curve, poor fit]"},
      {"smiles": "CN1/C(=C\\C(=O)c2ccco2)C(C)(C)c2ccccc21", "AC50": "12.6 µM [rising, partial curve]"},
      {"smiles": "COc1ccc(N2CCN(c3ncnc4nc[nH]c34)CC2)cc1", "AC50": "12.6 µM [rising, partial curve]"},
      {"smiles": "Cc1cccn2c(=O)c3cc(C(=O)N4CCN(C(=O)c5ccco5)CC4)n(C)c3nc12", "AC50": "12.6 µM [rising, partial curve]"},
      {"smiles": "O=C(CN1C(=O)NC(Cc2ccccc2)C1=O)Nc1ccccc1", "note": "(stereo not drawn)", "AC50": "0.00631 µM [falling, full curve, poor fit]"},
      {"smiles": "O=C(O)c1ccccc1C(=O)NCC(O)COCC1CC=CCC1", "note": "(stereo not drawn)", "AC50": "1 µM [rising, single point]"}
    ]}
  ]
}
